Taken from: PubChem BioAssay AID504784 (Drosophila RNAi Screening Center, 2011)

Assay: 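Genome-wide knock-down for genes giving too much or too little stored lipid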 (primary screen)
Cells: Drosophila Kc167 embryonic cells
Reagents: long dsRNA against Drosophila genes, about 250 ng dsRNA per well
Duration: 4 days
Conditions: cells fed 400 µM oleic acid bound to BSA
Measured: 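Cells imaged and segmented; ratio of lipid droplet area to nuclear area, log-transformed, then normalised as a B-score over the screen; higher means more stored lipid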
Scale: droplet/nuclear area B-score: higher = more stored lipid (overstorage)
The screen tested about 17,000 reagents; this is a random part of those with a known target gene and a result. 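Each column is one replicate's B-score; the combined score over replicates was not deposited, so single values may mislead.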 Names joined by + are all predicted targets of the reagent. Not all columns of the deposit are shown.

Gene | amplicon | droplet/nuclear area B-score, replicate 1
D19A (GeneID 38718) | DRSC11133 | 3.14
Hmt4-20 (GeneID 31015) | DRSC18482 | 1.09
ND-75 (GeneID 31762) | DRSC18686 | 5.44
CG43672 (GeneID 318910) | DRSC19452 | -0.184
CG43672 (GeneID 318910) | DRSC20108 | 0.275
MstProx (GeneID 40890) | DRSC12458 | 0.583
MstProx (GeneID 40890) | DRSC12601 | 2.62
Sps2 (GeneID 34397) | DRSC03441 | -0.099
CG2150 (GeneID 43745) | DRSC15420 | -0.249
Sf3a1 (GeneID 42048) | DRSC15166 | -0.606
Ctr1B + Poxm | DRSC16245 | 11.2
heph (GeneID 48571) | DRSC14082 | -0.235
heph (GeneID 48571) | DRSC14085 | 0.85
heph (GeneID 48571) | DRSC15436 | 1.53
heph (GeneID 48571) | DRSC16783 | -0.216
CG34210 (GeneID 5740490) | DRSC04579 | 0.244
hwt (GeneID 32202) | DRSC19386 | -1.46
CG31544 (retired record) (GeneID 318792) | DRSC12466 | -0.64
CR9337 (GeneID 3885658) | DRSC03212 | -0.846
CG3999 (GeneID 41253) | DRSC15534 | 0.492
Gyc76C + CG42637 | DRSC11180 | -0.605
Tsp33B (GeneID 34590) | DRSC02418 | -0.854
CG13838 (GeneID 42719) | DRSC14688 | -0.281
aln (GeneID 2768997) | DRSC08240 | -0.102
CG32266 (GeneID 317945) | DRSC08062 | 0.399
Hexo1 (GeneID 38528) | DRSC08663 | -1.68
Zwilch (GeneID 59247) | DRSC15376 | 0.201
RIOK1 (GeneID 39309) | DRSC09853 | -0.0133
CG15200 (GeneID 32060) | DRSC19647 | -0.158
caly (GeneID 36794) | DRSC07182 | 3.56
dtn (GeneID 31555) | DRSC17939 | -1.98
Boot (GeneID 35919) | DRSC06412 | 0.0208
Cyp4ac2 (GeneID 33755) | DRSC03303 | -1.45
CG10984 (GeneID 39446) | DRSC09817 | 1.34

5 entries from above, reformatted.
| Gene | amplicon | droplet/nuclear area B-score, replicate 1 |
| --- | --- | --- |
| CG13838 (GeneID 42719) | DRSC14688 | -0.281 |
| aln (GeneID 2768997) | DRSC08240 | -0.102 |
| CG32266 (GeneID 317945) | DRSC08062 | 0.399 |
| Hexo1 (GeneID 38528) | DRSC08663 | -1.68 |
| Zwilch (GeneID 59247) | DRSC15376 | 0.201 |
